Measurements reported in PMC7286909.

Target: T1, GST-SHQ1-α (full length SHQ1) (human) (UniProt Q6PI26)
T1 sequence: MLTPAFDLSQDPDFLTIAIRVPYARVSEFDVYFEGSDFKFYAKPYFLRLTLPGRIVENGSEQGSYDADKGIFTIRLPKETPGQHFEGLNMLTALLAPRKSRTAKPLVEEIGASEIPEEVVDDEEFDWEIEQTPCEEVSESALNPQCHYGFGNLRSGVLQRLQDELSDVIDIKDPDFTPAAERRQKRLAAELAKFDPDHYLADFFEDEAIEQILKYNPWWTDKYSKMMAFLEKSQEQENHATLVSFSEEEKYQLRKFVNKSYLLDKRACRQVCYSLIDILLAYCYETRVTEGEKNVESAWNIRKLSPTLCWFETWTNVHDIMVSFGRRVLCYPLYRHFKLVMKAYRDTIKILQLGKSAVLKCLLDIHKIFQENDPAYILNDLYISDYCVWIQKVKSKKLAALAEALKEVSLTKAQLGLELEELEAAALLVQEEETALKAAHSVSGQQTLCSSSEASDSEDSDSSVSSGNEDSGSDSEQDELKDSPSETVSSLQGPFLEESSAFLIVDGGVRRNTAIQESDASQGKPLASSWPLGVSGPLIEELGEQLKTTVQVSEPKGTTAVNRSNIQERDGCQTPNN
Test: pull-down; His-GRP78 incubated with GST or GST-SHQ1 (2 μg purified recombinant proteins) for 2 h at 4 °C in 20 mM Tris-HCl pH 8.0, 200 mM NaCl, 0.1% NP-40, 0.3% β-ME; glutathione-Sepharose beads 1 h; western blot; both purified

His-GRP78
binding: binds

No constants are given. Whether binding was seen depends on the method and setting. Binding calls can cover weak binding; strength is not graded here. Where a sequence is shown, tags or fusion partners need not be part of it.
